{"source": "PubChem BioAssay AID504793 (Drosophila RNAi Screening Center, 2011)", "test": "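Whole-genome screen for parts of the DNA damage checkpoint at G2/M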 (primary screen)", "cell system": "Drosophila S2R+ cells", "reagent": "long dsRNA against Drosophila genes, about 0.25 µg dsRNA per well", "timing": "4 days of dsRNA, then 4 hours of drug before read-out", "treatment": "doxorubicin 0.5 µM for 4 hours to cause double-strand breaks, in cells also given a low, harmless dose of dsRNA against nbs to sensitise the assay", "measurement": "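Per-well count of mitotic cells stained for phospho-histone H3 after doxorubicin exposure, used as mitotic index; counts are raw and not normalised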", "reading the numbers": "mitotic cells: higher = more cells in mitosis, weaker G2 arrest", "active means": "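Genes are called active only when high mitotic counts were reproduced with independent dsRNAs and mitosis was checked for delay without damage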", "meaning of the calls": "active = confirmed in follow-up tests; inactive = not confirmed", "note": "The deposit covers about 23,000 reagents; below is an unselected part of those with a known target gene and a result. Of all reagents, 62 (0.27%) are marked active. 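Calls come from follow-up tests whose scores are not deposited, so confirmed genes may have low counts here; counts are not normalised per plate.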 The raw values are shown without normalisation. Entries without a mark were called inactive. Reagents against one gene are numbered here. A plus sign joins genes that one reagent is predicted to hit."}
{"Target gene":"CG15888","reagent no.":1,"mitotic cells, replicate 1":3}
{"Target gene":"CG15888","reagent no.":2,"mitotic cells, replicate 1":10}
{"Target gene":"CG30031 + deltaTry + CG30025 + 1 more","reagent no.":1,"mitotic cells, replicate 1":6}
{"Target gene":"CG13344","reagent no.":1,"mitotic cells, replicate 1":5}
{"Target gene":"CG4751","reagent no.":1,"mitotic cells, replicate 1":9}

2 entries from above, reformatted:
| Target gene | reagent no. | mitotic cells, replicate 1 |
| --- | --- | --- |
| CG30031 + deltaTry + CG30025 + 1 more | 1 | 6 |
| CG13344 | 1 | 5 |

Additional records follow.
{"Target gene":"CG6293","reagent no.":1,"mitotic cells, replicate 1":11}
{"Target gene":"CG6293","reagent no.":2,"mitotic cells, replicate 1":9}
{"Target gene":"TRAM","reagent no.":1,"mitotic cells, replicate 1":10}
{"Target gene":"TRAM","reagent no.":2,"mitotic cells, replicate 1":10}
{"Target gene":"DENR","reagent no.":1,"mitotic cells, replicate 1":8}
{"Target gene":"CG16775","reagent no.":1,"mitotic cells, replicate 1":4}
{"Target gene":"CG31272","reagent no.":1,"mitotic cells, replicate 1":4}
{"Target gene":"Gbp3","reagent no.":1,"mitotic cells, replicate 1":7}
{"Target gene":"Prx4","reagent no.":1,"mitotic cells, replicate 1":6}
{"Target gene":"Prx4","reagent no.":2,"mitotic cells, replicate 1":4}
